Results: PubChem BioAssay AID662 (National Center for Advancing Translational Sciences (NCATS), 2007)
Where “and” joins values, the source holds several entries; their conditions need not be identical. Identical values can stand only once. The list shows a part of the results. These are further read-outs of the screen, such as a control signal, another cell line or another target. No call is given for them. The list favours compounds with an active or inconclusive main result. Words in brackets tell the shape of the fitted curve; partial curves, single points and poor fits give uncertain potencies.

Assay: Cell signaling CRE-BLA (Fsk stim)
Settings: CHO CRE-bla reporter (cAMP response element driving beta-lactamase), forskolin EC10, beta-lactamase ratio; measured here: 460 nm blue channel
Method in brief: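 Titrated compounds plus EC10 NKH 477 on CHO CRE-bla cells, 3 h, 37 °C. CCF4, 2 h RT. Ratio 460/530 nm → AC50.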

SMILES | AC50
COc1cccc(-c2nc(-c3ccccn3)no2)c1OC | 12.6 µM [rising, single point]
Brc1ccc(C2=Nn3c(nnc3-c3n[nH]c4c3CCC4)SC2)cc1 | 7.94 µM [rising, partial curve]
COc1ccccc1-c1nc(C#N)c(N2CCc3ccccc3C2)o1 | 2 µM [rising, partial curve]
CCN(CC)C(=O)C1CCCc2c1[nH]c1ccc(Cl)cc21 (stereo not drawn) | 7.94 µM [falling, partial curve]
Nc1nnc(-c2ccncc2)s1 | 2.51 µM [falling, full curve, poor fit]
COc1cc(-c2noc(CCC(=O)Nc3cccnc3)n2)cc(OC)c1OC | 7.94 µM [rising, partial curve]
COCCn1c(=O)c(CCc2ccccc2)nc2cnc(Oc3ccccc3)nc21 | 7.94 µM [rising, partial curve]
CC(C)C1Nc2ccc(S(N)(=O)=O)cc2C2C=CCC21 (stereo not drawn) | 12.6 µM [falling, single point]
O=C(NCC1CC1)[C@H]1C[C@@H]1[C@H](NP(=O)(c1ccccc1)c1ccccc1)c1ccccc1 | 15.8 µM [rising, single point]
CCc1ccccc1NC(=O)Cn1nnc(-c2cccnc2)n1 | 3.16 µM [rising, single point]
COc1cc(C2C(C#N)=C(N)Oc3n[nH]c(-c4ccncc4)c32)cc(OC)c1OC (stereo not drawn) | 12.6 µM [rising, single point]
CCOC(=O)c1[nH]c(C)c(C(=O)N2CCc3ccccc32)c1C | 10 µM [rising, partial curve]
Clc1ccc2[nH]c3c(c2c1)CCc1cn[nH]c1-3 | 6.31 µM [falling, partial curve]
COc1ccc(CNc2ccnc(-c3ccc(C(=O)N(C)C)cc3)n2)c(OC)c1 | 6.31 µM [rising, partial curve]
Cc1ccc(S(=O)(=O)Nc2cccc(-c3cn4ccsc4n3)c2)cc1 | 10 µM [rising, partial curve]
O=C1NC2NC(=O)N(C(Cc3ccccc3)C(=O)O)C2N1 (stereo not drawn) | 0.251 µM [rising, partial curve]
CC(C)Sc1nc2c(c(=O)n1-c1ccc(F)cc1)SCC2 | 12.6 µM [rising, partial curve]
Cc1nn(-c2ccccc2)c2sc(C(=O)N3CCOCC3)cc12 | 5.01 µM [rising, partial curve]
CCOC(=O)c1c(N)c(C#N)c2n1CCCCC2 | 12.6 µM [rising, single point]
O=S(=O)(CC(CN1CCCC1)N1CCCC1)c1ccc2ccccc2c1 (stereo not drawn) | 3.98 µM [falling, partial curve]
Cc1cc(C(=O)CSc2nnc(-c3ccc(OC(F)F)cc3)o2)c(C)n1Cc1cccs1 | 5.01 µM [falling, single point]
CCn1c(NC(=O)Nc2ccccc2OC)nc2ccccc21 | 0.0794 µM [falling, full curve, poor fit]
COc1ccc(-n2c(Cc3cccn3C)nnc2SCC(=O)Nc2cc(Cl)ccc2OC)cc1 | 25.1 µM [falling, single point]

SMILES | AC50
Cc1ccnc2ccc(-c3nc4ccccc4o3)cc12 | 0.316 µM [falling, full curve]
N#CCCn1c(=O)c(-c2ccc(Cl)cc2)nc2cnc(Oc3cccc(Cl)c3)nc21 | 3.16 µM [rising, full curve]
O=C(CSc1nc2sc3c(c2c(=O)n1-c1ccccc1)CCCC3)NCc1ccco1 | 5.01 µM [rising, partial curve]
CCCCCn1c(N)c(C#N)c2nc3ccccc3nc21 | 10 µM [rising, partial curve]
CCOc1ccc(NC(=O)CN2CCN(CC(=O)Nc3cccc(F)c3)CC2)cc1 | 5.01 µM [falling, partial curve, poor fit]
COCCn1c(=O)c(-c2cccc(C#N)c2)nc2cnc(N3CCOCC3)nc21 | 15.8 µM [rising, partial curve]
CC1=C(C#N)C(c2cccnc2)C2=C(CC(C)(C)CC2=O)N1 (stereo not drawn) | 15.8 µM [rising, partial curve]
Cc1ccc(Nc2ncnc3nc[nH]c23)cc1Cl | 12.6 µM [rising, partial curve]
O=C(CN1C(=O)c2ccccc2S1(=O)=O)N1CCN(c2cccc(Cl)c2)CC1 | 0.0794 µM [falling, full curve]
COc1nc(NCc2cccnc2)nc(OC)n1 | 12.6 µM [rising, single point]
COc1ccc(-c2cc3ccccc3n2CC(O)CN2CCOCC2)cc1 (stereo not drawn) | 3.16 µM [rising, single point]
COc1cc2nc(N3CCN(C(=O)[C@H]4COc5ccccc5O4)CC3)nc(N)c2cc1OC | 31.6 µM [rising, single point]
CCOC(=O)C1=C(CNCCc2ccc(Cl)cc2)NC(=O)NC1c1ccc2c(c1)OCO2 (stereo not drawn) | 2 µM [rising, full curve]
O=C(Cn1cccc1C(=O)c1ccccc1)NCCN1CCCCCC1 | 31.6 µM [falling, partial curve, poor fit]
COc1cccc(Cn2c(=O)c(-c3cccs3)nc3cnc(N4CCNCC4)nc32)c1 | 2 µM [rising, full curve]
c1ccc(-c2c3ccccc3nc3[nH]c4ccccc4c23)cc1 | 12.6 µM [rising, partial curve]
COc1ccccc1CNc1cc(-c2c(C)noc2C)ncn1 | 12.6 µM [rising, single point]
Cc1cccc(-c2nnc(SCC#N)n2-c2cccc(Cl)c2)c1 | 25.1 µM [rising, single point]
Cc1noc(C)c1-c1nc(N(C)C)c2ccccc2n1 | 1 µM [rising, full curve, poor fit]
COc1ccccc1CNC(=O)C1CCN(Cc2nc(-c3cccc(Cl)c3)oc2C)CC1 | 0.0631 µM [falling, full curve, poor fit]
CCOC(=O)Cc1csc(SCc2nc3ccccc3c(=O)[nH]2)n1 | 20 µM [rising, single point]
COC(=O)c1cc(CSc2nnc(-c3ccccc3)c(-c3ccccc3)n2)oc1C | 25.1 µM [rising, single point]
CC(C)CC(NC(=O)C1CCC(C)CC1)C(=O)Nc1cccnc1 (stereo not drawn) | 7.94 µM [rising, partial curve, poor fit]

SMILES | AC50
COc1cccc(CNc2nc3ccccc3n2CCN2CCCCC2)c1OC | 12.6 µM [rising, single point]
CCNc1nc(CC)nc2c1oc1ccccc12 | 1.58 µM [rising, partial curve]
COc1ccc(S(=O)(=O)c2ccc(OC)c(OC)c2)cc1OC | 10 µM [rising, partial curve]
Cc1noc(C)c1COC(=O)c1ccc2c(c1)S(=O)(=O)c1ccccc1C2=O | 1.26 µM [rising, full curve]
c1coc(C2Nc3ccccc3-c3nc4ccccc4n32)c1 (stereo not drawn) | 10 µM [rising, partial curve]
COc1ccc(S(=O)(=O)N2CCN(CC(=O)Nc3cccc(F)c3)CC2)cc1 | 0.316 µM [rising, full curve, poor fit]
CN1CCN(c2nc(-c3cccnc3)nc3ccccc23)CC1 | 10 µM [rising, partial curve] and 15.8 µM [rising, single point]
COc1cc(C2c3c(oc4c(C)cc(C)cc4c3=O)C(=O)N2Cc2cccnc2)cc(OC)c1OC (stereo not drawn) | 25.1 µM [rising, single point]
CCOC(=O)c1nc(-c2ccc3c(c2)OCO3)[nH]c1C | 10 µM [rising, partial curve]
Cc1onc(-c2ccccc2Cl)c1C(=O)N1CCN(c2cccc(Cl)c2)CC1 | 0.501 µM [rising, partial curve]
Cn1nc(C(=O)N2CCN(S(=O)(=O)c3ccccc3)CC2)c2ccccc2c1=O | 0.02 µM [falling, full curve, poor fit]
O=c1c(-c2ccccc2)nc2cnc(Nc3ccccc3)nc2n1Cc1cccs1 | 2.51 µM [rising, full curve]
N#CCCn1c(=O)cnc2cnc(Nc3ccccc3)nc21 | 6.31 µM [rising, partial curve]
CCOC(=O)C1=C(N)n2c(s/c(=C/c3ccco3)c2=O)=C(C(=O)OC)C1c1ccco1 (stereo not drawn) | 1.58 µM [rising, full curve]
COc1ccc2[nH]c3nc(SC(C)C)nnc3c2c1 | 10 µM [rising, partial curve]
Cc1cc(-c2nc3ccccc3o2)c2ccccc2n1 | 10 µM [rising, single point]
CC(C)C(C(=O)C=[N+]=[N-])N1C(=O)c2ccccc2C1=O (stereo not drawn) | 3.16 µM [rising, single point]
CCN(CC)C(=O)CSc1nc2ccccc2c(=O)n1-c1cccc(OC)c1 | 3.16 µM [rising, full curve]
O=C(CCC1(C(=O)O)CCC(=O)NC1)NCc1ccccc1 (stereo not drawn) | 0.158 µM [falling, full curve, poor fit]
CCc1nnc(NC(=O)CCN2C(=O)CCC2=O)s1 | 0.316 µM [rising, partial curve, poor fit]
CN(C)c1ncc2nc(-c3ccccc3)c(=O)n(C3CC3)c2n1 | 10 µM [rising, partial curve]
Cc1ccc(S(=O)(=O)N(C)Cc2nc(-c3ccccn3)no2)cc1 | 10 µM [falling, partial curve]
